Assay results: article PMC5440525
Results are given in words; binding and its absence hold for the method and conditions named. In cells and extracts the contact can be indirect. For some assays here: A result given as binding can be weak or reduced; the word gives no strength. Blank lines part the entries; values can stand above or below the binder they belong to.

By UniProt entry, the sequences of proteins in these tests, tags left out. Where a name states a change or a piece, a line headed by the entry shows the natural chain unless it says otherwise.
UniProt P20029: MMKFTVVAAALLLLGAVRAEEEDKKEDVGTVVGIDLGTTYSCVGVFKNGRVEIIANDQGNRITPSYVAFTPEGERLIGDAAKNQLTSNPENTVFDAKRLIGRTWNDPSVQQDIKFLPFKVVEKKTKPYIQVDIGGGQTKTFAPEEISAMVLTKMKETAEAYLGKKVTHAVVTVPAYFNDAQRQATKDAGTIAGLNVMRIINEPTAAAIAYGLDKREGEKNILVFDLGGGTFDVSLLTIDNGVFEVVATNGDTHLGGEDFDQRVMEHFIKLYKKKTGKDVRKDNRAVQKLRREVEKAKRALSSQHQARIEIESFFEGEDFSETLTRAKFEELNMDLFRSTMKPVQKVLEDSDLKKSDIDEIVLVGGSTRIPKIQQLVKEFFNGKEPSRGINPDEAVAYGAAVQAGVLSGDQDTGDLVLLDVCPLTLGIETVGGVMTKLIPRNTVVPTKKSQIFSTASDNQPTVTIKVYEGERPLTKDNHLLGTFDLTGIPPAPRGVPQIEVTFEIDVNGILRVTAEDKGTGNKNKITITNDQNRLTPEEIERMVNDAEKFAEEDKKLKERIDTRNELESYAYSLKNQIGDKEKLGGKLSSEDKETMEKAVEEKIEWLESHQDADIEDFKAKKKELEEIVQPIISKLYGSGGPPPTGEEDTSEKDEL

Legend:
[1] = target: glutathione-S-transferase (GST)-GRP78, full-length mouse GRP78 (mouse) (UniProt P20029); experiment: pull-down; GST fusion protein (20 µg) incubated with 500 µL DC2.4 cell membrane protein lysates (1 × 10^6 cells) for 1 h on ice, then glutathione agarose beads overnight at 4°C; immunoblot; only the target purified
[2] = target: glutathione-S-transferase (GST)-GRP78, full-length mouse GRP78 (mouse), P20029; experiment: as above; details: remark: other sources report otherwise

binding [1]: binds
B1: CD14 (in membrane protein lysates of DC2.4 cells) (receptor, UniProt P10810 16-336)
chain: SPAPPEPCELDEESCSCNFSDPKPDWSSAFNCLGAADVELYGGGRSLEYLLKRVDTEADLGQFTDIIKSLSLKRLTVRAARIPSRILFGALRVLGISGLQELTLENLEVTGTAPPPLLEATGPDLNILNLRNVSWATRDAWLAELQQWLKPGLKVLSIAQAHSLNFSCEQVRVFPALSTLDLSDNPELGERGLISALCPLKFPTLQVLALRNAGMETPSGVCSALAAARVQLQGLDLSHNSLRDAAGAPSCDWPSQLNSLNLSFTGLKQVPKGLPAKLSVLDLSYNRLDRNPSPDELPQVGNLSLKGNPFLDSESHSEKFN

B2: toll-like receptor (TLR) 4 (in membrane protein lysates of DC2.4 cells), Q9QUK6 26-835 (receptor)
chain: NPCIEVVPNITYQCMDQKLSKVPDDIPSSTKNIDLSFNPLKILKSYSFSNFSELQWLDLSRCEIETIEDKAWHGLHHLSNLILTGNPIQSFSPGSFSGLTSLENLVAVETKLASLESFPIGQLITLKKLNVAHNFIHSCKLPAYFSNLTNLVHVDLSYNYIQTITVNDLQFLRENPQVNLSLDMSLNPIDFIQDQAFQGIKLHELTLRGNFNSSNIMKTCLQNLAGLHVHRLILGEFKDERNLEIFEPSIMEGLCDVTIDEFRLTYTNDFSDDIVKFHCLANVSAMSLAGVSIKYLEDVPKHFKWQSLSIIRCQLKQFPTLDLPFLKSLTLTMNKGSISFKKVALPSLSYLDLSRNALSFSGCCSYSDLGTNSLRHLDLSFNGAIIMSANFMGLEELQHLDFQHSTLKRVTEFSAFLSLEKLLYLDISYTNTKIDFDGIFLGLTSLNTLKMAGNSFKDNTLSNVFANTTNLTFLDLSKCQLEQISWGVFDTLHRLQLLNMSHNNLLFLDSSHYNQLYSLSTLDCSFNRIETSKGILQHFPKSLAFFNLTNNSVACICEHQKFLQWVKEQKQFLVNVEQMTCATPVEMNTSLVLDFNNSTCYMYKTIISVSVVSVIVVSTVAFLIYHFYFHLILIAGCKKYSRGESIYDAFVIYSSQNEDWVRNELVKNLEEGVPRFHLCLHYRDFIPGVAIAANIIQEGFHKSRKVIVVVSRHFIQSRWCIFEYEIAQTWQFLSSRSGIIFIVLEKVEKSLLRQQVELYRLLSRNTYLEWEDNPLGRHIFWRRLKNALLDGKASNPEQTAEEEQETATWT
binding [2]: no binding (tested: 20 µg GST fusion protein)
